No constants are given. Whether binding was seen depends on the method and setting. Binding seen in cells or lysates may run through a third protein. These calls come from enrichment with a bait or labelling near it, and not all partners need be listed. Sequences can lack the tags named with a protein.
Biological target: T1, C-terminal protein A (pA)-tagged Rad3 (Saccharomyces cerevisiae) (UniProt P06839)
T1 sequence: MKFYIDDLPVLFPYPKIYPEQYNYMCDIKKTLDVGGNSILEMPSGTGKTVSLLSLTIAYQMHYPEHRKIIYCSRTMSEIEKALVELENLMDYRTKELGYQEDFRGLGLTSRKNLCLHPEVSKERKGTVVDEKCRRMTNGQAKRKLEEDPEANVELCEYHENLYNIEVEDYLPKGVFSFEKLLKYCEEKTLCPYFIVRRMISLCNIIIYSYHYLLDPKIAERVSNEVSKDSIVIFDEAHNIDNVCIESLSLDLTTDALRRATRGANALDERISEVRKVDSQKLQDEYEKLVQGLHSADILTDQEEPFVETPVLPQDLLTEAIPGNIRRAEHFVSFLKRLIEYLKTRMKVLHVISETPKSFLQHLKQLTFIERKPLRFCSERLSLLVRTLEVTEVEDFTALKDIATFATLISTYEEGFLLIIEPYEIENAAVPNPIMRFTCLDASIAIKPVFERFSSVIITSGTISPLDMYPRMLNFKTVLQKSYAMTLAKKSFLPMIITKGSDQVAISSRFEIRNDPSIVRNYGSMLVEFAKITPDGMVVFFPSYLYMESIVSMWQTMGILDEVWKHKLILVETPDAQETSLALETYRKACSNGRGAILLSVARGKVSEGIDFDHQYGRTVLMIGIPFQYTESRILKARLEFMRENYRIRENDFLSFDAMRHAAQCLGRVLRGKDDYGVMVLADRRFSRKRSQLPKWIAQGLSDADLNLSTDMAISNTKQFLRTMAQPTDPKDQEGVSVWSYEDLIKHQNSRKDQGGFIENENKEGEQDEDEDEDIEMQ
Assay: affinity purification with mass spectrometry; as a7, from the strain with Tfb2 YL399–400AA

B1: Tfb6 (protein, UniProt Q08816 1-343)
chain: MSEPNTPLHAQPNEQLDLNNLNDLDEKDIDDLNLDPNSDVEISADSGDVVNSNIDNVIWQRNCNKKRRYHTPEFNDVYNETNNTINDVTMLDDVDDFQPRINVSSPFSSATKLSELLPNDHNGTSHPRRLSMSQQSKFISYVDDQLLQIQRKFVQSRGLNIKNGYASLTPLLQDLKTLVDFVWYSIAHVPNSDYLLQSEEKRHCPDSRNPKDTCGYSSYFGQGSYLIKIADDLIDYVEKFTFKNMEDSEINDTLSKLFKLFFILDRIFVILTDDNDNCKEVPKTSSASKNIAGLNGTDIVRLKGIAERTRVRLPIFLESQGIHGYHYELSKIYEGFLDHANSF
binding: binds

From article PMC9557730
